The values below come from US11579088B2, “Device and method for imaging shortwave infrared fluorescence” (Massachusetts Institute of Technology, priority 2016, dated 2023).

The data set has as its system brain vasculature. The experiment in a line: Noninvasive brain vasculature imaging through intact skin and skull (NIR vs SWIR). The class given is in vivo, mouse. The following applies: for apparent vessel width (full width at half maximum of two-Gaussian fit): ICG 0.2 mg/kg; for image contrast (coefficient of variation: standard deviation of pixel intensity normalized to mean): 808 nm excitation.

Take `CC1(C)C(/C=C/C=C/C=C/C=C2\N(CCCCS(=O)(=O)O)c3ccc4ccccc4c3C2(C)C)=[N+](CCCCS(=O)(=O)[O-])c2ccc3ccccc3c21` [ICG, indocyanine green]: the “SWIR image contrast greater than NIR image contrast” value (ICG 0.2 mg/kg tail vein, SWIR vs NIR) is recorded as around 50%. The “apparent vessel width (full width at half maximum of two-Gaussian fit)” value was 430 μm (NIR image, silicon camera) and 210 μm (SWIR image, InGaAs camera 1300-1620 nm). Further, the “image contrast (coefficient of variation: standard deviation of pixel intensity normalized to mean)” value was determined as 0.20 (NIR image, silicon camera, ICG 0.2 mg/kg tail vein) and 0.29 (SWIR image, InGaAs camera 1300-1620 nm, ICG 0.2 mg/kg tail vein).
